PubChem BioAssay AID1508587, Peter MacCallum Cancer Centre, 2020
Test: 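Retest of knockdowns boosting BRAF inhibitor action on lactate release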 (follow-up of hits). Cell system: human WM266.4 melanoma cells with a BRAF V600 mutation. Reagent: single siRNA against human genes, 25 nM. Time to read-out: 96 h. Treatment: vemurafenib 300 nM (about IC25), given 48 h after transfection for 48 h. Measured: 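Per-cell lactate from absorbance divided by DAPI nucleus counts, compared with and without vemurafenib, relative to non-targeting siRNA, mean of 2 replicates; nuclear counts also give cell number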. Reading the numbers: lactate per cell, drug vs no drug: higher = less drug-induced drop in lactate per cell. Active means: 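a duplex is active when its lactate-per-cell ratio with versus without drug falls under 0.55, i.e. 2 SD below non-targeting; a gene is confirmed if 2 or more of 4 duplexes pass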.
Shown is one part, drawn at random, of about 1,600 reagents tested. Of all reagents, 623 (39%) are marked active. 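Calls are for each duplex; lactate ratios contain extreme outliers.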 A number with no mark means an inactive call. The numbers tell different reagents against one gene apart. Further read-outs or replicates are left out here.

| gene | reagent | lactate per cell, drug vs no drug |
| --- | --- | --- |
| BCAR3 (BCAR3 adaptor protein, NSP family member) | 1 | 0.61 |
| BCAR3 (BCAR3 adaptor protein, NSP family member) | 2 | 0.31 (active) |
| BCAR3 (BCAR3 adaptor protein, NSP family member) | 3 | 0.39 (active) |
| BCAR3 (BCAR3 adaptor protein, NSP family member) | 4 | 0.55 |
| MAPK13 (mitogen-activated protein kinase 13) | 1 | 0.65 |
| MAPK13 (mitogen-activated protein kinase 13) | 2 | 0.57 |
| MAPK13 (mitogen-activated protein kinase 13) | 3 | 0.58 |
| MAPK13 (mitogen-activated protein kinase 13) | 4 | 0.57 |
| KLK7 (kallikrein related peptidase 7) | 1 | 0.49 (active) |
| KLK7 (kallikrein related peptidase 7) | 2 | 0.48 (active) |
| KLK7 (kallikrein related peptidase 7) | 3 | 0.38 (active) |
| KLK7 (kallikrein related peptidase 7) | 4 | 0.7 |
| HTR7 (5-hydroxytryptamine receptor 7) | 1 | 0.66 |
| HTR7 (5-hydroxytryptamine receptor 7) | 2 | 0.62 |
| HTR7 (5-hydroxytryptamine receptor 7) | 3 | 0.45 (active) |
| HTR7 (5-hydroxytryptamine receptor 7) | 4 | 0.74 |
| BCCIP (BRCA2 and CDKN1A interacting protein) | 1 | 0.64 |
| BCCIP (BRCA2 and CDKN1A interacting protein) | 2 | 0.49 (active) |
| BCCIP (BRCA2 and CDKN1A interacting protein) | 3 | 0.61 |
| BCCIP (BRCA2 and CDKN1A interacting protein) | 4 | 0.57 |
| PCDHB14 (protocadherin beta 14) | 1 | 0.55 |
| PCDHB14 (protocadherin beta 14) | 2 | 0.68 |
| PCDHB14 (protocadherin beta 14) | 3 | 0.67 |
| PCDHB14 (protocadherin beta 14) | 4 | 0.48 (active) |
| PLEC (plectin) | 1 | 0.8 |
| PLEC (plectin) | 2 | 0.58 |
| PLEC (plectin) | 3 | 0.6 |
| PLEC (plectin) | 4 | 0.6 |
| ZCWPW1 (zinc finger CW-type and PWWP domain containing 1) | 1 | 0.44 (active) |
| ZCWPW1 (zinc finger CW-type and PWWP domain containing 1) | 2 | 0.61 |
| ZCWPW1 (zinc finger CW-type and PWWP domain containing 1) | 3 | 0.72 |
| ZCWPW1 (zinc finger CW-type and PWWP domain containing 1) | 4 | 0.55 |
| SCAMP2 | 1 | 0.73 |
| SCAMP2 | 2 | 0.47 (active) |
| SCAMP2 | 3 | 0.42 (active) |
| SCAMP2 | 4 | 0.56 |

3 entries from above, sorted by “lactate per cell, drug vs no drug”, lowest first:
| gene | reagent | lactate per cell, drug vs no drug |
| --- | --- | --- |
| BCAR3 (BCAR3 adaptor protein, NSP family member) | 4 | 0.55 |
| MAPK13 (mitogen-activated protein kinase 13) | 2 | 0.57 |
| MAPK13 (mitogen-activated protein kinase 13) | 1 | 0.65 |
